Source: publication doi:10.1101/068262 (bioRxiv, 2016)
These are yes or no findings as the source states them, for the method shown. In cells and extracts the contact can be indirect. Some results given as binding are weak or reduced against the parent protein; the word gives no strength.

The chains behind the UniProt entries cited, without tags or fusion partners.
UniProt O00472: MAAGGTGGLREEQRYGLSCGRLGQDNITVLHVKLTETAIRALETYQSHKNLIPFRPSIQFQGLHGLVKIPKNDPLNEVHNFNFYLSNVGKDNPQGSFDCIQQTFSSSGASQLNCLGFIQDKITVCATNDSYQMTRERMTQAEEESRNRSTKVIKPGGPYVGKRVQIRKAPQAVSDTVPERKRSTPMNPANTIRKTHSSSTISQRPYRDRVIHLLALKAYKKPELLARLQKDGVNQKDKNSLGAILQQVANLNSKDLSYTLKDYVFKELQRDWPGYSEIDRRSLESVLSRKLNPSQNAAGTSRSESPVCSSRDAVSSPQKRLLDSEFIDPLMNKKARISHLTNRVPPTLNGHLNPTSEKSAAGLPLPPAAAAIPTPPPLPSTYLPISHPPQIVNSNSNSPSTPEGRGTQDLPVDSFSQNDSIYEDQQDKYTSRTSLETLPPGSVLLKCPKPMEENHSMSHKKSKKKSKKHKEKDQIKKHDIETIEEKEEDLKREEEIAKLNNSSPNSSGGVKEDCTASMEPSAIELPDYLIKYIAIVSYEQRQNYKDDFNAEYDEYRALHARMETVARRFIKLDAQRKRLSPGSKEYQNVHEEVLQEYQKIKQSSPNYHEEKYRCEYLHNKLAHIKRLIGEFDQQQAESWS

Molecular target: HA-tagged wild-type ELL2 (human) (UniProt O00472)
Experiment: co-IP

B1: AFF1 in nuclear extracts (protein, UniProt P51825 1-1210)
chain: MAAQSSLYNDDRNLLRIREKERRNQEAHQEKEAFPEKIPLFGEPYKTAKGDELSSRIQNMLGNYEEVKEFLSTKSHTHRLDASENRLGKPKYPLIPDKGSSIPSSSFHTSVHHQSIHTPASGPLSVGNISHNPKMAQPRTEPMPSLHAKSCGPPDSQHLTQDRLGQEGFGSSHHKKGDRRADGDHCASVTDSAPERELSPLISLPSPVPPLSPIHSNQQTLPRTQGSSKVHGSSNNSKGYCPAKSPKDLAVKVHDKETPQDSLVAPAQPPSQTFPPPSLPSKSVAMQQKPTAYVRPMDGQDQAPSESPELKPLPEDYRQQTFEKTDLKVPAKAKLTKLKMPSQSVEQTYSNEVHCVEEILKEMTHSWPPPLTAIHTPSTAEPSKFPFPTKDSQHVSSVTQNQKQYDTSSKTHSNSQQGTSSMLEDDLQLSDSEDSDSEQTPEKPPSSSAPPSAPQSLPEPVASAHSSSAESESTSDSDSSSDSESESSSSDSEENEPLETPAPEPEPPTTNKWQLDNWLTKVSQPAAPPEGPRSTEPPRRHPESKGSSDSATSQEHSESKDPPPKSSSKAPRAPPEAPHPGKRSCQKSPAQQEPPQRQTVGTKQPKKPVKASARAGSRTSLQGEREPGLLPYGSRDQTSKDKPKVKTKGRPRAAASNEPKPAVPPSSEKKKHKSSLPAPSKALSGPEPAKDNVEDRTPEHFALVPLTESQGPPHSGSGSRTSGCRQAVVVQEDSRKDRLPLPLRDTKLLSPLRDTPPPQSLMVKITLDLLSRIPQPPGKGSRQRKAEDKQPPAGKKHSSEKRSSDSSSKLAKKRKGEAERDCDNKKIRLEKEIKSQSSSSSSSHKESSKTKPSRPSSQSSKKEMLPPPPVSSSSQKPAKPALKRSRREADTCGQDPPKSASSTKSNHKDSSIPKQRRVEGKGSRSSSEHKGSSGDTANPFPVPSLPNGNSKPGKPQVKFDKQQADLHMREAKKMKQKAELMTDRVGKAFKYLEAVLSFIECGIATESESQSSKSAYSVYSETVDLIKFIMSLKSFSDATAPTQEKIFAVLCMRCQSILNMAMFRCKKDIAIKYSRTLNKHFESSSKVAQAPSPCIASTGTPSPLSPMPSPASSVGSQSSAGSVGSSGVAATISTPVTIQNMTSSYVTITSHVLTAFDLWEQAEALTRKNKEFFARLSTNVCTLALNSSLVDLVHYTRQGFQQLQELTKTP
binding: binds
